Measured values as given in PubChem BioAssay AID504467 (National Center for Advancing Translational Sciences (NCATS), 2011).
Among all 330,000 compounds or so, about 7,700 (2.3%) were called active. Inconclusive means that the source gave no clear call. Such entries were picked first, then a sample of the others. The call rests on the fitted dose curve; in most records, active means well fitted inhibition curve with a large enough effect; inconclusive means small, poorly fitted or top-dose-only effect, or effect the other way; inactive means flat fitted curve, though single readings scatter. A potency beside an inconclusive call is a rough fit, not a confirmed value.

Assay: qHTS screen for small molecules that inhibit ELG1-dependent DNA repair in human embryonic kidney (HEK293T) cells expressing luciferase-tagged ELG1; further: nearly all actives have a fitted effect of over 55% in size
Conditions: HEK293T ELG1-luciferase reporter, luminescence, 16 h, DNA damage induced by 5-fluorouridine; series mostly up to 46.1 µM
Procedure, shortened: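 Reporter activity after DNA damage by 5-fluorouridine is monitored. Compound-treated cells incubate 16 hr at 37 °C, then ONE-Glo is added for 30 min before luminescence reading.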
Potency means the concentration at half of the fitted maximal effect.

| Compound | Potency |
| --- | --- |
| Cc1ccc(CNC(=O)CS(=O)(=O)Cc2nc(-c3ccccc3F)oc2C)cc1 | inactive |
| O=C(c1cccc(S(=O)(=O)N2CCCCC2)c1)N1CCN(S(=O)(=O)c2ccc(F)cc2)CC1 | inactive |
| COCc1cccc(NC(=O)CCc2ccccc2)c1 | inconclusive: 11.6 µM [activator, partial curve, poor fit] |
| O=S(=O)(c1ccccc1)N1CCN=C1SCc1cccc(Cl)c1 | inactive |
| O=C(CSc1nnnn1C1CCCC1)NCCc1ccccc1 | inconclusive: 29.1 µM [activator, single point] |
| CC1(C)Cc2c(C#N)c(N3CCN(C(=O)c4ccccc4Cl)CC3)nc(-c3ccco3)c2CS1 | inconclusive: 29.1 µM [inhibitor, single point] |
| Cc1ccc(C(=O)Nc2cnc3ccccc3c2)cc1 | inconclusive: 0.058 µM [activator, full curve] |
| CN(CCc1ccccc1)C1CCCN(S(=O)(=O)c2cccc(F)c2)C1 (stereo not drawn) | inactive |
| CCOc1ccc2nc(NC(=O)CSc3nc4c(c(=O)n(C)c(=O)n4C)n3C(C)C)sc2c1 | active: 9.2 µM |
| CC(=O)c1ccccc1NC(=O)CN1C(=O)CS/C1=C\c1nc(-c2ccc(C)cc2)cs1 | inactive |
| COc1ccc(/C=C(\CC(=O)O)c2nc3ccccc3o2)cc1 | inconclusive: 14.6 µM [activator, partial curve] |
| Cc1cccc(C(=O)NNC2=CC(=O)CC(C)(C)C2)c1O | inconclusive: 16.4 µM [activator, single point] |
| CS(=O)(=O)N(Cc1ccccc1)c1ccc(C(=O)N2CCN(c3cccc(Cl)c3)CC2)cc1 | inconclusive: 18.4 µM [inhibitor, single point] |
| COc1ccc2cc(C=NS(=O)(=O)c3ccc(C)cc3)n(C)c2c1 | inactive |
| CC1(C)NC(=O)N(CC(O)CN(c2ccccc2)S(=O)(=O)c2ccccc2)C1=O (stereo not drawn) | inconclusive: 32.6 µM [activator, partial curve, poor fit] |
| Cc1cc(C)cc(-c2nnc(SCC(=O)N3CCN(C(=O)c4ccco4)CC3)o2)c1 | inconclusive: 35.5 µM [inhibitor, single point] |
| CCCNC(=O)Nc1cccc(NC(C)=O)c1 | inconclusive: 6.51 µM [inhibitor, partial curve, poor fit] |
| C=CCSc1nc2ccccc2n1S(=O)(=O)c1ccc(C)cc1 | inconclusive: 11.6 µM [activator, partial curve] |
| CCC(=O)NC(=S)Nc1ccc(NC(=O)c2ccc(OC)cc2)cc1 | inactive |
| Cc1ccc(Nc2nc(N)c([N+](=O)[O-])c(NCc3ccco3)n2)cc1C | inconclusive: 6.51 µM [activator, single point] |
| Cc1cc(C(=O)CN2CCC(C)CC2)c(C)n1-c1ccccc1F | inconclusive: 1.16 µM [activator, partial curve] |
| COc1cccc(C(=O)NCC(=O)N/N=C/c2cccnc2)c1 | inactive |
| Cc1nc2cc(C(F)(F)F)ccc2n1C1CCN(CC(=O)NC(C)(C)C)CC1 | inactive |
| CCCOc1ccc(C2Nc3cccc4cccc(c34)N2)cc1 | inconclusive: 18.3 µM [activator, single point] |
| COc1ccccc1N1CCN(C(=O)c2ccccc2Oc2ccccc2)CC1 | inactive |

| Compound | Potency |
| --- | --- |
| COc1ccc(-c2cc(C(F)(F)F)n3nc(C(=O)NCCCn4ccnc4)cc3n2)cc1 | inconclusive: 3.26 µM [inhibitor, partial curve, poor fit] |
| COc1c(C)cccc1C(=O)Nc1ccc(N2CCOCC2)c(Cl)c1 | inconclusive: 3.66 µM [activator, full curve] |
| CCC(=O)Nc1ccc(-c2ccc(N3CCCCC3)nn2)cc1 | inconclusive: 7.3 µM [activator, partial curve] |
| Nc1ccc(C(=O)N/N=C/c2cn(Cc3ccc(F)cc3)c3ccccc23)cc1 | inactive |
| O=C(NCc1ccco1)C1CCCN1C(=O)Nc1ccc(Br)cc1 (stereo not drawn) | inactive |
| COCCCNC(=O)CCCn1c(=O)c2ccccc2n(Cc2cccc([N+](=O)[O-])c2)c1=O | inactive |
| CN(C)c1ccc(C2CC(c3ccccc3)=Nc3nc(-c4ccccc4)cn32)cc1 (stereo not drawn) | inconclusive: 14.6 µM [activator, partial curve, poor fit] |
| COc1ccc(Cl)cc1NS(=O)(=O)c1ccc(S(=O)(=O)N2CCCC2)cc1 | inactive |
| CCCCNC(=O)c1ccc2nc(-c3ccco3)c(-c3ccco3)nc2c1 | inactive |
| O=C(Cc1cc(=O)[nH][nH]1)N/N=C/c1c(Cl)cccc1Cl | inactive |
| C#CCOCCOCCOCCNc1nc(N2CCN(C(=O)Cn3cc(CCCN=C(N)N)nn3)CC2)nc(N2CCN(C(=O)[C@H]([C@@H](C)O)n3cc(CCCCN)nn3)CC2)n1 | inconclusive: 25.1 µM [activator, single point] |
| CCCc1nnc(NC(=O)c2cccc(OC)c2)s1 | inconclusive: 2.06 µM [activator, partial curve, poor fit] |
| CCOc1ccc(C(C)=O)cc1COC(=O)c1cccnc1SC | inactive |
| CC(C)(C)C(=O)Nc1nnc(CCc2ccccc2)s1 | inconclusive: 18.3 µM [activator, partial curve] |
| Cc1cc(C(=O)Nc2ccccc2N2CCOCC2)ccc1[N+](=O)[O-] | inactive |
| CN(Cc1ccc(OCC(O)CN(C)Cc2ccccc2)cc1)Cc1nccn1C (stereo not drawn) | inactive |
| CCN(CC)c1ccc(/C=N/n2c(C)nc3ccccc3c2=O)cc1 | inconclusive: 18.3 µM [inhibitor, single point] |
| CCOC(=O)/C(=C\c1ccc([N+](=O)[O-])cc1)C(=O)c1cc(C(C)=O)c(Nc2ccccc2)s1 | inconclusive: 29.1 µM [inhibitor, single point] |
| CC(=O)c1sc(NC(=O)CSC(C)C(=O)Nc2cc(C)on2)nc1-c1ccccc1 (stereo not drawn) | inactive |
| CCC(C)Oc1nc(C)cc(C)c1S(=O)(=O)c1ccccc1C (stereo not drawn) | inactive |
| C[C@H]1CN=C(N(C)C)N1CCCC1CCCCC1 | inconclusive: 20 µM [activator, single point] |
| CC1C(=O)C(C)C(c2cc(Cl)ccc2O)NC1c1cc(Cl)ccc1O (stereo not drawn) | inconclusive: 18.3 µM [inhibitor, single point] |
| CC(Sc1nc(-c2ccccc2)cc(C(F)(F)F)n1)C(=O)Nc1sc2c(c1C#N)CCC2 (stereo not drawn) | inconclusive: 18.4 µM [inhibitor, single point] |
| C[C@H](/C=C/[C@@]1(O)[C@H](C)C[C@H](O)CC1(C)C)O[C@@H]1O[C@H](CO)[C@@H](O)[C@H](O)[C@H]1O | inconclusive: 16.4 µM [inhibitor, single point] |
| CCN(CC(=O)NCc1ccc(Cl)cc1)C(=O)CCc1ccccc1O | inactive |

| Compound | Potency |
| --- | --- |
| Cc1ccc(NC(=O)CCNC(=O)c2ccccc2Cl)cc1S(=O)(=O)N1CCOCC1 | inconclusive: 18.3 µM [inhibitor, single point] |
| O=C(NCCCc1ccc(F)cc1)C1CCC(=O)N(CC2CCCCC2)C1 (stereo not drawn) | inactive |
| Cc1cccn2c(=O)c3cc(C#N)c(=NC(=O)c4cccs4)n(CC(C)C)c3nc12 | inactive |
| Cc1ccc(NS(=O)(=O)c2ccc(C(=O)N3CCN(c4ccccn4)CC3)cc2)cc1 | active: 14.6 µM |
| Cc1cccc(NC(=O)CSc2ccc(-c3cccnc3)nn2)c1 | inconclusive: 5.8 µM [inhibitor, partial curve, poor fit] |
| CCCCOc1ccc(Cc2cnc(N)nc2N)cc1 | inactive |
| Oc1ccc2oc3c(c2c1/C=N/n1cnnc1)CCCC3 | inconclusive: 29.1 µM [inhibitor, single point] |
| Nc1nc(-c2ccccc2)cs1 | inconclusive: 14.6 µM [activator, partial curve] |
| COc1ccc(-c2cc(-c3cccs3)nc(OC)c2C#N)cc1OC | active: 18.4 µM |
| COc1cccc(CSc2nnc(-c3ccc(F)cc3)o2)c1 | inconclusive: 10.3 µM [activator, partial curve, poor fit] |
| COc1ccc(C(=O)Cc2ccccc2)cc1OC | inconclusive: 23.1 µM [activator, single point] |
| C=CCn1c(O)c(CN2CCN(Cc3ccccc3)CC2)c(C)c(C#N)c1=O | inconclusive: 16.4 µM [activator, single point] |
| CCOC(=O)C(CCCOc1ccc(C)cc1)C(=O)OCC | inactive |
| CCNC(=S)NNC(=O)CCc1nc2cc(Cl)ccc2n(Cc2ccccc2)c1=O | inactive |
| COc1ccc(C2C3=C(NCCN=C3c3ccccc3)C(=O)N2c2ccccc2)c(OC)c1 (stereo not drawn) | inconclusive: 32.6 µM [activator, single point] |
| CCN(CC)S(=O)(=O)c1cc(NC(=O)C2CC(=O)N(Cc3ccccc3)C2)ccc1Cl (stereo not drawn) | inconclusive: 23.1 µM [inhibitor, partial curve] |
| COc1cccc2sc(N)nc12 | inactive |
| O=C1CCC(C(=O)N2CCc3ccccc3C2)CN1CCCN1CCOCC1 (stereo not drawn) | inactive |
| Cc1cccc(C(=O)O/N=C(\N)c2ccccn2)c1 | inconclusive: 2.31 µM [activator, partial curve] |
| COc1cc(O)c(C(CCN2CCCC2)c2ccc3c(c2)OCO3)c(OC)c1 (stereo not drawn) | inconclusive: 29.1 µM [activator, single point] |
| COc1cc(/C=N/n2c(C)n[nH]c2=S)ccc1OCc1ccccc1 | inconclusive: 13 µM [activator, partial curve] |
| CC(C)c1cccc(-c2ccc3c(c2)S(=O)(=O)c2cccc(C(=O)NCc4ccccc4Cl)c2C3=O)c1 | inactive |
| Cc1ccc(-n2cc(-c3ccccc3)c3c(NN4CCOCC4)ncnc32)cc1 | inconclusive: 29.1 µM [inhibitor, single point] |

5 compounds drawn at random from the list so far:

| Compound | Potency |
| --- | --- |
| COc1ccc(C(=O)Cc2ccccc2)cc1OC | inconclusive: 23.1 µM [activator, single point] |
| CCNC(=S)NNC(=O)CCc1nc2cc(Cl)ccc2n(Cc2ccccc2)c1=O | inactive |
| Cc1ccc(NC(=O)CCNC(=O)c2ccccc2Cl)cc1S(=O)(=O)N1CCOCC1 | inconclusive: 18.3 µM [inhibitor, single point] |
| Cc1ccc(-n2cc(-c3ccccc3)c3c(NN4CCOCC4)ncnc32)cc1 | inconclusive: 29.1 µM [inhibitor, single point] |
| CCCCOc1ccc(Cc2cnc(N)nc2N)cc1 | inactive |
